Record: PubChem BioAssay AID1508597 (Cure First, 2020)
Shown is an unselected part of the about 2,100 reagents, under one of the conditions tested. 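Calls flag viability under 80% in either arm, not effects specific to rucaparib; the reference for percent is not stated.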 Some reagents were tested in more than one well and are listed for each. Reagent sequences are not shown. Not given: the 100% reference.

- Screen: 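Genes whose silencing sensitises or protects ovarian cancer cells against rucaparib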 (primary screen)
- Cell system: human ovarian carcinoma lines grown from tumours: OCI-P5x (papillary serous) and OCI-C5x (clear cell)
- Reagents: siRNA pool against human genes, 1.25 pmol siRNA per well
- Duration: 72 h or 96 h, depending on the cell culture
- Conditions: rucaparib 20 µM (about IC30) or vehicle, present until read-out
- Rucaparib or vehicle: Rucaparib
- Cell line: OCI-C5x (clear cell)
- Measured: 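Luminescent ATP-based viability assay read 72 or 96 h after transfection, depending on culture, given as normalised percent viability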
- Reading the numbers: viability, normalised: higher = more viable cells remaining
- Active means: 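Active when normalised viability falls below 80 percent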
- Meaning of the calls: active = viability under 80%; inactive = viability 80% or more

KSR1, technical replicate 1 | viability, normalised (%) = 51.2; activity call = active
KSR1, technical replicate 2 | viability, normalised (%) = 32.7; activity call = active
KSR1, technical replicate 3 | viability, normalised (%) = 40.7; activity call = active
MTA3, technical replicate 1 | viability, normalised (%) = 42; activity call = active
MTA3, technical replicate 2 | viability, normalised (%) = 50.9; activity call = active
MTA3, technical replicate 3 | viability, normalised (%) = 49.6; activity call = active
SP1, technical replicate 1 | viability, normalised (%) = 65.2; activity call = active
SP1, technical replicate 2 | viability, normalised (%) = 33.7; activity call = active
SP1, technical replicate 3 | viability, normalised (%) = 58.2; activity call = active
DYRK1B, technical replicate 1 | viability, normalised (%) = 55.6; activity call = active
DYRK1B, technical replicate 2 | viability, normalised (%) = 31.7; activity call = active
DYRK1B, technical replicate 3 | viability, normalised (%) = 45; activity call = active
SMNDC1, technical replicate 1 | viability, normalised (%) = 46.8; activity call = active
SMNDC1, technical replicate 2 | viability, normalised (%) = 59; activity call = active
SMNDC1, technical replicate 3 | viability, normalised (%) = 45.4; activity call = active
FOS, technical replicate 1 | viability, normalised (%) = 40; activity call = active
FOS, technical replicate 2 | viability, normalised (%) = 56.5; activity call = active
FOS, technical replicate 3 | viability, normalised (%) = 54.8; activity call = active
BABAM1, technical replicate 1 | viability, normalised (%) = 71.1; activity call = active
BABAM1, technical replicate 1 | viability, normalised (%) = 61; activity call = active
BABAM1, technical replicate 2 | viability, normalised (%) = 80.9; activity call = inactive
BABAM1, technical replicate 2 | viability, normalised (%) = 81.5; activity call = inactive
BABAM1, technical replicate 3 | viability, normalised (%) = 60.9; activity call = active
BABAM1, technical replicate 3 | viability, normalised (%) = 54.7; activity call = active
PARP14, technical replicate 1 | viability, normalised (%) = 29.5; activity call = active
PARP14, technical replicate 2 | viability, normalised (%) = 29.2; activity call = active
PARP14, technical replicate 3 | viability, normalised (%) = 28.7; activity call = active
TARBP2, technical replicate 1 | viability, normalised (%) = 45.3; activity call = active
TARBP2, technical replicate 2 | viability, normalised (%) = 54.7; activity call = active
TARBP2, technical replicate 3 | viability, normalised (%) = 38.3; activity call = active
TRIM66, technical replicate 1 | viability, normalised (%) = 81.8; activity call = inactive
TRIM66, technical replicate 2 | viability, normalised (%) = 55.3; activity call = active
TRIM66, technical replicate 3 | viability, normalised (%) = 52.1; activity call = active

5 entries from above, sorted by “viability, normalised (%)”, ascending:
PARP14, technical replicate 3 | viability, normalised (%) = 28.7; activity call = active
PARP14, technical replicate 2 | viability, normalised (%) = 29.2; activity call = active
TARBP2, technical replicate 3 | viability, normalised (%) = 38.3; activity call = active
TARBP2, technical replicate 1 | viability, normalised (%) = 45.3; activity call = active
TARBP2, technical replicate 2 | viability, normalised (%) = 54.7; activity call = active
